In article PMC12104430:
No constants are given. Whether binding was seen depends on the method and setting. Binding seen in cells or lysates may run through a third protein. Some binding calls cover weakened binding; strength is not graded here. Tags and fused reporters may be left off the sequences shown.

Protein sequences, listed by entry. Tags and fused reporters are not part of them. Residues count along the entry.
UniProt P14778, residues 18-569: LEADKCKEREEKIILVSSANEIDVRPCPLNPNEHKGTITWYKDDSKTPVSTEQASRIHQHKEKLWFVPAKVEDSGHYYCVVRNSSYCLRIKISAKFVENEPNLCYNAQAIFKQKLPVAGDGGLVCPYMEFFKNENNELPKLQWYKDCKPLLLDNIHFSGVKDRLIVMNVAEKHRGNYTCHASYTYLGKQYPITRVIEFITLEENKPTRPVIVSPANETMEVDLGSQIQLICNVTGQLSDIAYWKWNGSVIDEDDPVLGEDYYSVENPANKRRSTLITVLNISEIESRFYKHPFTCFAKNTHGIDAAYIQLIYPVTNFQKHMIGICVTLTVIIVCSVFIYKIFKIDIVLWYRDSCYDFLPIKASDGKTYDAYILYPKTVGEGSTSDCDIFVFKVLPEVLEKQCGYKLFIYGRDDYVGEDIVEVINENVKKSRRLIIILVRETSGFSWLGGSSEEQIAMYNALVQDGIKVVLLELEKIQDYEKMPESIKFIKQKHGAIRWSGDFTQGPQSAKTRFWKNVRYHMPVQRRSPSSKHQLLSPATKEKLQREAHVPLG

Molecular target: Interleukin-1 receptor 1 (Flag-IL1R1) (human) (UniProt P14778)
Test: co-IP; HEK293T cells transiently transfected with HA-OMD and Flag-IL1R1; lysed in EBC buffer (50 mmol/L Tris-HCl pH 8.0, 120 mmol/L NaCl, 0.5% Nonidet P-40), sonicated; lysate pre-cleared with protein A/G Sepharose, incubated with anti-Flag or anti-HA agarose beads 2 h at 4 °C; washed 4 times with NETN buffer; immunoblot

B1: Osteomodulin (HA-OMD) (protein, UniProt Q99983 21-421)
chain: QYETYQWDEDYDQEPDDDYQTGFPFRQNVDYGVPFHQYTLGCVSECFCPTNFPSSMYCDNRKLKTIPNIPMHIQQLYLQFNEIEAVTANSFINATHLKEINLSHNKIKSQKIDYGVFAKLPNLLQLHLEHNNLEEFPFPLPKSLERLLLGYNEISKLQTNAMDGLVNLTMLDLCYNYLHDSLLKDKIFAKMEKLMQLNLCSNRLESMPPGLPSSLMYLSLENNSISSIPEKYFDKLPKLHTLRMSHNKLQDIPYNIFNLPNIVELSVGHNKLKQAFYIPRNLEHLYLQNNEIEKMNLTVMCPSIDPLHYHHLTYIRVDQNKLKEPISSYIFFCFPHIHTIYYGEQRSTNGQTIQLKTQVFRRFPDDDDESEDHDDPDNAHESPEQEGAEGHFDLHYYENQE
For B1, the binding was “binds”.
